Source: paper PMC7048761
Results are given in words; binding and its absence hold for the method and conditions named. Binding seen in cells or lysates may run through a third protein.

Target: INSIG
Test: co-IP; HEK293T cells transfected with expression constructs (over-expressed); lysates in NP-40 buffer (150 mM NaCl, 5 mM EDTA, 1% NP-40, 50 mM Tris-HCl, pH 7.4), overnight at 4 °C with antibodies and protein A/G magnetic Dynabeads, three washes with lysis buffer, immunoblot

B1: SREBP Regulating Gene SPRING (C12ORF49) (protein, UniProt Q9H741 1-205)
chain: MVNLAAMVWRRLLRKRWVLALVFGLSLVYFLSSTFKQEERAVRDRNLLQVHDHNQPIPWKVQFNLGNSSRPSNQCRNSIQGKHLITDELGYVCERKDLLVNGCCNVNVPSTKQYCCDGCWPNGCCSAYEYCVSCCLQPNKQLLLERFLNRAAVAFQNLFMAVEDHFELCLAKCRTSSQSVQHENTYRDPIAKYCYGESPPELFPA
- binding: no binding
